Source: PubChem BioAssay AID1259354 (Paczesny and Yang Labs, IUPUI and University of Michigan, 2018)
Where “and” joins values, the source holds several entries; their conditions need not be identical. Identical values can stand only once. The whole screen tested about 78,000 compounds, of which about 1,800 (2.3%) were called active. Inconclusive results, whose numbers are uncertain, are shown with a selection of clear calls. Rule as the data show it: active = inhibition above about 30%; inconclusive = mostly about 10% to 28%; inactive = weaker than that.

Sequences of proteins named here, by UniProt entry; tags and fusion partners are left off. A change or cut given only in a name is not applied to a line headed by its entry.
UniProt Q01638: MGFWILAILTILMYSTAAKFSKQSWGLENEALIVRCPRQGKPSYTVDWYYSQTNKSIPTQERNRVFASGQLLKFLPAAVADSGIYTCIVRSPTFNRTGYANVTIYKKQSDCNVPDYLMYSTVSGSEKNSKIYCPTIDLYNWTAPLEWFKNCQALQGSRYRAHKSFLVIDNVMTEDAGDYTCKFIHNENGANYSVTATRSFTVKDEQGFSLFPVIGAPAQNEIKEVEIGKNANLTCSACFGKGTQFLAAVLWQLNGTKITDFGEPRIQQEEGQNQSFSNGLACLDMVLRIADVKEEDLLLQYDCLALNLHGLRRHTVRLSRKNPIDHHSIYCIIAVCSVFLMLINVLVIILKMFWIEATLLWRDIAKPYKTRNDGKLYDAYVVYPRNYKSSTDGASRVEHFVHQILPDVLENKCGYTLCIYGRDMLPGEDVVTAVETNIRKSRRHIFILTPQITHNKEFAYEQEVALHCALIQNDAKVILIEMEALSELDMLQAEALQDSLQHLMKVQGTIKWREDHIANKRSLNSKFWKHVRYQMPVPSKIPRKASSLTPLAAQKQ

Biological target: Interleukin-1 receptor-like 1 (Homo sapiens) (UniProt Q01638)
Experiment: blocks human ST2 binding to IL-33, primary screen, biochemical, AlphaLISA (AID 1259354)
Conditions: AlphaLISA ST2-Fc/biotin-IL-33 interaction, 1 h; at 17 µM, stronger effect = higher value

Compound | inhibition
Oc1oc(-c2ccccc2)nc1C=Nc1ccccc1I | inconclusive: 13%
COc1cc(C2C(C#N)=C(N)Oc3n[nH]c(-c4ccc5c(c4)OCO5)c32)ccc1O (configuration not stated) | inconclusive: 13%
COc1cc(CN2CCSCC2)c([N+](=O)[O-])cc1OC | inconclusive: 22%
CCc1noc(C)c1C(=O)NCc1cccnc1-n1cnc2ccccc21 | inconclusive: 20%
COCC1(C(=O)N2CCN(CCc3ccncc3)CC2)CCC1 | inconclusive: 10%
COc1ccc(C(C)=O)cc1CSc1nnc(C)s1 | inconclusive: 11%
CCOC(=O)c1cc(CC)sc1NC(=O)c1ccccc1NS(=O)(=O)c1ccc(C)cc1 | inactive
COc1ccccc1NC(=O)c1cc2cc3ccc(C)cc3nc2s1 | inactive
Cc1cccc(NC(c2ccccc2[N+](=O)[O-])c2ccc3ccc(C)nc3c2O)n1 (configuration not stated) | inconclusive: 24%
Cc1ncc(-c2cc3cc([N+](=O)[O-])ccc3oc2=O)s1 | inactive
O=C(CCc1ccsc1)NC1CC(=O)N(Cc2ccc(F)cc2)C1 (configuration not stated) | inactive
COc1ccc(Cl)cc1/C=C1\C(=O)N(c2ccc(Cl)c(C(=O)O)c2)N=C1C | active: 74%
CCN(CC)C(=O)c1cncc(C(=O)N(CC)CC)c1-c1ccccc1 | inactive
COc1cccc(NS(=O)(=O)c2cc(Br)cc3c2N(C(C)=O)C(C)C3)c1 (configuration not stated) | inconclusive: 11%
C=CCOc1ccc(C=Nc2ccc(C)c(Cl)c2)c(O)c1 | active: 92%
COc1ccc(-c2nc(S(=O)(=O)c3ccccc3)c(N3CCCCCC3)o2)cc1 | inconclusive: 27%
CCOCCCNC(=O)C1c2c(n(C)c3ccccc23)SCC(=O)N1C1CCN(Cc2ccccc2)CC1 (configuration not stated) | inactive
COC(=O)CCc1ccc(O)c(OC)c1 | inconclusive: 11%
Cc1cc2ccccc2c(=O)n1Cc1ccccc1 | inactive
CCCCC1C(=O)N(C)CCN1C(=O)c1ccc(=O)[nH]c1 (configuration not stated) | inconclusive: 13%
Cc1cc(C)c(-c2nccn2CC2CCN(C)C2)cc1Cn1cncn1 (configuration not stated) | inconclusive: 18%
O=c1oc2ccc(NS(=O)(=O)c3ccccc3)cc2s1 | inconclusive: 10%
CN(C)c1ncc(CNC2CCCc3nc(-c4cccnc4)ncc32)s1 (configuration not stated) | inconclusive: 16%
CCOCCCN(C)C1CCN(C(=O)C2CCN(c3ccc(-c4cccs4)nn3)CC2)CC1 | inactive
Cc1ccc(C)c(NC(=O)NCCc2nc3cccnc3n2-c2ccccc2)c1 | inconclusive: 10%

Compound | inhibition
O=C1CCC(CCC(=O)N2CCN(Cc3ccc4c(c3)OCO4)CC2)(Cc2ccc(Cl)cc2)N1 (configuration not stated) | inactive
CC1(C)Cc2c(c(N3CCCCC3)nc3sc(C#N)c(N)c23)CO1 | inconclusive: 24%
COc1cccc(NC(=O)N2CCC[C@@H](O)[C@H](NC(=O)c3ccc(OCCN4CCCC4)cc3)C2)c1 | inconclusive: 14%
Cc1ccccc1C1=N/C(=C\c2c(F)cccc2Cl)C(=O)O1 | inconclusive: 17%
Cc1cccc(CC(=O)NC2CC(=O)N(c3cccc(F)c3)C2)c1 (configuration not stated) | inconclusive: 15%
COC(=O)[C@@H]1C[C@@H](NC(=O)c2cc(N)ccn2)CN1C | inactive
CCC(C)(C)C1CCC2(CC1)SCC(=O)N2c1ccc(F)cc1 (configuration not stated) | inactive
CCCCN(C)C(=O)C1c2cc(OC)c(OC)cc2C(=O)N(C)C1c1cccs1 (configuration not stated) | inactive
N#CC1=C(N)SC(N)=C(C#N)C1c1ccc(Cl)c([N+](=O)[O-])c1 | inconclusive: 24%
O=[N+]([O-])c1ccccc1S(=O)(=O)N1CCN(Cc2ccc(F)cc2)CC1 | inconclusive: 13%
CCOC(=O)C1C(=O)C=C(c2cccs2)CC1c1cccs1 (configuration not stated) | inconclusive: 15%
O=c1oc2c(O)cccc2c(O)c1O | inactive
O=C(c1ccc2c(c1)OCCO2)N1CCOC(CCc2ccccc2)C1 (configuration not stated) | inactive
O=C(NCc1cccs1)c1ccc2c(c1)N(Cc1ccccc1)C(=O)CS2 | inconclusive: 11%
COc1ccc2cc(C(=O)Nc3ccccc3)c(=Nc3ccc(F)cc3)oc2c1 | inconclusive: 15%
COc1cc(NC(=O)c2noc3c2CCc2ccccc2-3)c(OC)cc1Cl | inactive
CCOc1ccc(C2CC(c3ccccc3C)n3nc(N)nc3N2)cc1 (configuration not stated) | inconclusive: 12%
O=C(Nc1ccccc1)c1cc(S(=O)(=O)Nc2cccnc2)cs1 | inconclusive: 12%
CC1CCN(S(=O)(=O)c2ccc(Cl)c(C(=O)Nc3ccccc3[N+](=O)[O-])c2)CC1 | active: 34%
Cn1c(=O)c2c(-c3ccccc3)n(-c3ccc(F)cc3)cc2n(C)c1=O | inactive
CC(C)N(Cc1ccccc1)C(=O)c1ccc([N+](=O)[O-])cc1Cl | inconclusive: 18%
COC(C)(C)c1cc(-c2ccc([N+](=O)[O-])cc2)nc(N)n1 | inconclusive: 14%
COc1cccc(CNC(=O)CCC2CCCN(C(=O)c3ccc4cccc(F)c4n3)C2)c1 (configuration not stated) | inactive
CCCCC1CCC(C(=O)NN)CC1 (configuration not stated) | inactive
C=CCNC(=O)/C(=C/c1ccc2c(c1)OCO2)NC(=O)c1ccco1 | inactive

Compound | inhibition
Cc1ccc(I)cc1S(=O)(=O)n1nnc2ccccc21 | inconclusive: 10%
COc1ccccc1N1CCN(C(=O)c2ccc(F)cc2)CC1 | inactive
CC1=C(C)/C(=N\OC(=O)c2cccc(C)c2)C=C(Br)C1=O | inconclusive: 27%
Nc1ccc(Sc2nc3ccccc3s2)c(Cl)c1 | inconclusive: 11%
Cc1cc(N(C)C)nc(N2CCN(S(=O)(=O)c3cc(C)c(C)cc3C)CC2)n1 | inconclusive: 14%
O=C(C#Cc1ccc([N+](=O)[O-])cc1)c1ccccc1 | active: 33%
Cc1ccc(-c2nnc([C@H]3CCN(Cc4ccc(C)o4)C3)o2)cc1 | inactive
CN1CC[C@H](c2nc3ccc(C(F)(F)F)cc3[nH]2)C1 | inconclusive: 18%
CN(Cc1cccnc1)C(Cc1ccccc1)C1CCN(C(=O)C23CC4CC(CC(C4)C2)C3)CC1 (configuration not stated) | active: 32%
COc1ccc(/C=C2\SC(N3CCN(C)CC3)=NC2=O)c(OC)c1 | inconclusive: 10%
COc1cc(C)c(S(=O)(=O)N2CCN(c3nc(C)cc(Nc4ccc(C)cc4)n3)CC2)cc1C | inconclusive: 20%
CS(=O)(=O)c1nc(-c2ccc(Cl)cc2)cc(C(F)(F)F)n1 | inactive
CNC(=O)C1CCC(Cn2c(=O)c3sccc3n(CC(=O)Nc3ccccc3OC)c2=O)CC1 (configuration not stated) | inactive
O=C(c1cccc2c1NCCC2)N1CCOC(C(F)(F)F)C1 (configuration not stated) | inactive
COc1ccc(OC)c(NS(=O)(=O)c2ccc3c(c2)OCCO3)c1 | inconclusive: 16%
CCOc1ccc(C(C)(CC(=O)O)C(=O)O)cc1 (configuration not stated) | inconclusive: 13%
Cc1nc(CN(C)Cc2cccc(-c3ccco3)c2)no1 | inconclusive: 18%
C=CCOc1ccc(C=Nc2ccc(OC)cc2)cc1 | inconclusive: 14%
COc1ccc(CN2CCN(C(=O)c3ccncc3)CC2)cc1Br | inconclusive: 13%
CSc1nc(N)nc(SCc2ccc(F)cc2)c1C#N | inactive
COc1cccc(CN=Cc2[nH]c3ccc(Br)c(Cl)c3c2O)c1OC | inconclusive: 25%
N#CC(=C1CCCCC1)c1nc(-c2cc3ccccc3oc2=O)cs1 | inconclusive: 11%
CC(C)c1cc(C(=O)NCc2cccnc2N2CCCCCCC2)n[nH]1 | inconclusive: 20%
COc1ccc(CCN2CC34C=CC(O3)C(C(=O)NCc3ccc(F)cc3)C4C2=O)cc1OC (configuration not stated) | inactive
CSCCC(NC(=O)c1cncc(O)c1)C(=O)O (configuration not stated) | inconclusive: 18%

Compound | inhibition
CC(=O)c1cccc(NC(=O)CCc2c(C)nc3cc(-c4ccccc4)nn3c2C)c1 | inactive
O=c1cc(CO)oc(C(Nc2ccccn2)c2ccc3c(c2)OCO3)c1O (configuration not stated) | inactive
CC(C)c1ccc(NC2CCCN(c3cncc(C(=O)N(C)C)n3)C2)cc1 (configuration not stated) | inconclusive: 12%
CCc1cnc(-c2cc3ccccc3o2)nc1 | inactive
Cc1ccc(C)c(NC(=O)CCN2CCCC2)c1 | inactive
O=C(O)C1(O)CCN(c2cc(C(F)(F)F)ccn2)CC1 | inconclusive: 11%
O=C(c1ccc(CS(=O)(=O)c2c(Cl)cccc2Cl)o1)N1CCCCCC1 | inactive
COc1ccc(C(=O)NCc2cccnc2N(C)C2CCCCC2)o1 | inconclusive: 22%
CC(CCc1ccco1)NC(=O)c1cc(Cn2ccc3ccccc32)[nH]n1 (configuration not stated) | inconclusive: 10%
O=C(Cc1c[nH]c2ccccc12)N(CCO)Cc1cccs1 | inactive
CCOc1cc(CN2Cc3nc(N)nc(-c4ccccc4)c3C2)ccc1O | inconclusive: 13%
COC(=O)C1C(=O)NC(SC)=C(C#N)C1c1ccc(C)cc1 (configuration not stated) | inactive
O=C(NCc1ccccc1OC(F)(F)F)C1CCC(=O)N(Cc2ccccn2)C1 (configuration not stated) | inconclusive: 11%
Cc1ccc(-c2nc3ccccc3s2)cc1NC(=O)c1ccc2c(c1)OCCO2 | inconclusive: 10%
COc1cccc(NC(=O)NC[C@H]2O[C@@H](CO)[C@@H](O)[C@H]2N2CCN(c3cccc(C(F)(F)F)c3)CC2)c1 | inconclusive: 17%
CC(=O)Nc1c(C(=O)C2CC2)oc2ccc(Cl)cc12 | inactive
COc1ccc2cc3cc(C(=O)NCc4ccc5c(c4)OCO5)oc3nc2c1 | inconclusive: 25%
CCOc1ccc(N=C2S/C(=C\c3ccc(N(C)C)cc3)C(=O)N2CC)cc1 | active: 56%
CNC(=O)c1[nH]nc2c1C(c1cnc(-c3ccccc3C)s1)CC(=O)N2 (configuration not stated) | inconclusive: 24%
COc1cc(NC(=O)c2ccoc2C)c(OC)cc1Cl | inconclusive: 11% and inconclusive: 10%
O=C(COc1ccccc1Cl)NC1CCCCCC1 | inactive
CCn1c(C2CCN(C(=O)c3ccc4c(c3)nnn4C)CC2)nn(C)c1=O | inactive
